Test results as given in PMC3471833.

Biological target: T1, human complement C1 esterase inhibitor (human) (UniProt P05155)
T1 sequence: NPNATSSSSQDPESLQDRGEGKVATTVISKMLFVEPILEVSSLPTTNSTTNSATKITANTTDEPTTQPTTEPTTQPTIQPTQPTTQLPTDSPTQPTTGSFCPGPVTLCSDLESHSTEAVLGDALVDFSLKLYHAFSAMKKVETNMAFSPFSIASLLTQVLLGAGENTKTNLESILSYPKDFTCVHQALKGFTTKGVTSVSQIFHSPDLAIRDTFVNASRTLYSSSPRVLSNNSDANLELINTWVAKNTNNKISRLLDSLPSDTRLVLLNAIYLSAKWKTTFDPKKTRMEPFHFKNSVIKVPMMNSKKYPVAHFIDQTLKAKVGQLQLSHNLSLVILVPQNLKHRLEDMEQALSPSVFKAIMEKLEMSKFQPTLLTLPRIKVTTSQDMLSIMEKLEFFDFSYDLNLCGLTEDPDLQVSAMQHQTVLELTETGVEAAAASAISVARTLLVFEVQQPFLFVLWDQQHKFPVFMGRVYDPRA
Experiment: SPR; Biacore T200; biotinylated goat anti-human C1inh polyclonal antibody on a streptavidin chip captured C1inh (1 µM injected, about 30 RU); C1s 3.9-1000 nM in HBS-EP+ with 200 nM CSA, heparin or OSCS injected at 30 µL/min, 120 s association, 180 s dissociation; double referencing (GAG alone subtracted); both purified

- binding: binds
Substance: Activated C1s (enzyme)

Results are given in words; binding and its absence hold for the method and conditions named. Binding calls can cover weak binding; strength is not graded here.
